# At least one compound was matched to its structure with a doubt left.
# Test system: bovine choroidal microvascular endothelial cells (BCEC)
# Test: BCEC proliferation assay
# Assay type: cell-based
# Protocol: Proliferation assays with BCECs and BRECs were performed. Log-phase growing BCECs or BRECs (passage <10) were trypsinized, re-suspended and seeded in 96-well plates (no coating) in low-glucose DMEM supplemented with 10% bovine calf serum, 2 mM glutamine, and antibiotics (growth medium), at a density of 1200-1500 cells per well in 200 μl volume. All reagents were added at the indicated final concentrations. […] Fluorescence was measured at 530 nm excitation wavelength and 590 nm emission wavelength. The experiments were repeated at least three times. […] On each 96-well plate, untreated and VEGF-treated (10/ng/ml) wells were included to monitor plate-to-plate variations. 20% methanol or 0.05% DMSO served as negative controls. 0.05% DMSO served as negative controls when Cas was tested in these cells. Human […] and human adult […] were split into Gelatin-coated 96 wells (2000 cells per well) in low glucose DMEM containing 10% FBS. 1200 cells/well was set up for proliferation assay in low glucose media containing FBS. […] HUVEC (p7-10) were grown on gelatin-coated plate until it reached 70-80% confluency. On the day of the assay, cells were dissociated with 0.05% trypsin, which was neutralized with 0.5% FBS-containing EBM. […] Cells were counted and plated in 96-well, 1000 cells/well. […] Cell-covered areas were quantified after taking pictures by Image J software.
structure (smiles),measurement,setting,value
Oc1c2ccccc2c2c3c(cccc13)N=N2 [SP600125],effect of JNK inhibitor on glycosylation inhibitor effects on BCEC proliferation,"5 uM, Kif and Cas",significantly reduced
same,effect of JNK inhibitor on ManN effects on BCEC proliferation,SP600125 5 uM,abolished the effects of ManN on BCEC proliferation
